Data published in PubChem BioAssay AID624297 (National Center for Advancing Translational Sciences (NCATS), 2012).
The campaign covered roughly 340,000 compounds. About 6,200 (1.8%) were called active. This list was built around the results that the source calls inconclusive (neither active nor inactive); the mix of calls is not that of the screen. Calls come from the whole dose curve; as a rule, active = well fitted activation curve with a large enough effect; inconclusive = small, poorly fitted or top-dose-only effect; inactive = no such curve, though single readings can be large or run the other way. Potencies beside an inconclusive call are fits to weak or partial responses and may not hold up.

Assay: A quantitative high throughput screen for small molecules that induce DNA re-replication in SW480 colon adenocarcinoma cells. For re-replication activation: % of control where 0% means no effect. Note: nearly all actives have a fitted effect of over 55% in size.
Settings: Hoechst DNA content imaging, 48 h; re-replication activation: at 46.1 µM (top of the series) unless noted
Method in brief: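 Hoechst fluorescence of nuclei (405 nm excitation, 500-530 nm emission) measured by plate-scanning imager after 48 hr compound exposure at 37 C; re-replication scored as increased number of nuclei with elevated intensity.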
Potency is the fitted concentration of half-maximal effect.

Row | SMILES | Potency | re-replication activation
1 | CCNc1nc(N)c(C(=O)c2ccc(Cl)s2)s1 | inconclusive: 16.4 µM [activator, single point] | –
2 | O=C(NCc1cccs1)c1cccnc1SCCS(=O)(=O)c1ccc(C(F)(F)F)cn1 | inconclusive: 29.1 µM [activator, single point] | –
3 | O=C(COc1ccc(Br)cc1CNC1CCCCC1)NCCc1ccccc1 | inconclusive: 23.1 µM [activator, single point] | –
4 | N#Cc1cc2cc3c(cc2nc1N1CCCCC1)OCCO3 | inconclusive: 23.1 µM [activator, single point] | –
5 | Cc1ccc(C(C[N+](=O)[O-])c2c(C)cc3ccccn23)cc1 (centres undefined) | inconclusive: 20.6 µM [activator, single point] | –
6 | COc1cccc(C(=O)Oc2ccc(/C=N/NC(=O)c3ccncc3)cc2OC)c1 | inconclusive: 20.6 µM [activator, partial curve, poor fit] | –
7 | CCc1nccn1S(=O)(=O)c1cc(OC)c(Cl)cc1OC | inconclusive: 25.9 µM [activator, partial curve, poor fit] | –
8 | O=C(CCC1COc2ccccc2O1)Nc1cccnc1 (centres undefined) | – | inactive: -14.9%
9 | CCc1nn(-c2cc(Cl)ccc2OC)c2c1C(=O)CCC2 | inconclusive: 29.1 µM [activator, single point] | –
10 | Cc1ccc(CNC(=O)COC(=O)c2nc(-c3ccccc3)oc2C)cc1 | inconclusive: 23.1 µM [activator, single point] | –
11 | CC(C)Oc1ccc(C(=O)CCN2CCCCC2)cc1 | inconclusive: 18.4 µM [activator, single point] | –
12 | COC(=O)c1ccccc1NC(=O)CSc1[nH]c(=O)cc(C)c1C#N | inconclusive: 18.4 µM [activator, single point] | –
13 | Clc1ccc(-c2nnc(SCc3nc4ccccc4[nH]3)o2)c(Cl)c1 | – | inactive: -1.69%
14 | Cc1ccc(Cc2nnc(SCC(=O)Nc3ccccc3Cl)[nH]c2=O)cc1 | inconclusive: 29.1 µM [activator, single point] | –
15 | CCCN1CCN(C(=S)Nc2ccc3nc(N4CCN(CC)CC4)cc(C)c3c2)CC1 | inconclusive: 29.1 µM [activator, single point] | –
16 | CC(C)NC(=O)Cn1cc(C(=O)C2CC2)c2ccccc21 | inconclusive: 3.26 µM [activator, single point] | –
17 | O=C(COc1ccc(Oc2ccccc2)cc1)NCc1cn2ccccc2n1 | inconclusive: 29.1 µM [activator, single point] | –
18 | O=c1/c(=C\c2ccc(O)cc2)sc2n1C(c1ccccc1)C(c1ccccc1)=NN=2 (centres undefined) | inconclusive: 18.4 µM [activator, single point] | –
19 | COc1cc(O)c(C(CC(=O)N2CCN(c3ccccc3)CC2)c2ccc(N(C)C)cc2)c(OC)c1 (centres undefined) | – | inactive: 7.03%
20 | Cc1ccccc1CN1[C@@H](CC2CCCCC2)COCCS1(=O)=O | – | inactive: 2.49%
21 | CC(=O)c1sc(N/N=C\c2ccccc2O)nc1C | inconclusive: 23.1 µM [activator, single point] | –
22 | COc1ccc(/C(C)=N/Nc2ncc(Cl)cc2Cl)c(O)c1 | inconclusive: 1.84 µM [activator, partial curve, poor fit] | –
23 | COc1ccc(/C=N/NC(=O)c2[nH]nc3c2CCc2ccccc2-3)cc1OC | inconclusive: 16.4 µM [activator, single point] | –

Exported as a markdown table: part of the list above

| Row | SMILES | Potency | re-replication activation |
| --- | --- | --- | --- |
| 1 | CCNc1nc(N)c(C(=O)c2ccc(Cl)s2)s1 | inconclusive: 16.4 µM [activator, single point] | – |
| 2 | O=C(NCc1cccs1)c1cccnc1SCCS(=O)(=O)c1ccc(C(F)(F)F)cn1 | inconclusive: 29.1 µM [activator, single point] | – |
| 3 | O=C(COc1ccc(Br)cc1CNC1CCCCC1)NCCc1ccccc1 | inconclusive: 23.1 µM [activator, single point] | – |
| 4 | N#Cc1cc2cc3c(cc2nc1N1CCCCC1)OCCO3 | inconclusive: 23.1 µM [activator, single point] | – |

Additional entries:

Row | SMILES | Potency | re-replication activation
24 | O=C(Nc1ccc(N2CCOCC2)cc1)Nc1ccc(Cl)c(Cl)c1 | – | inactive: 0.0427%
25 | Nc1ccc2oc(=O)c(-c3ccccc3)cc2c1 | inconclusive: 18.4 µM [activator, single point] | –
26 | CCOC(=O)C1CCCN(C(=O)Cn2sc3nc(C)cc(C)c3c2=O)C1 (centres undefined) | inconclusive: 5.8 µM [activator, full curve] | –
27 | CN(CC(=O)NCc1ccco1)CC(=O)Nc1c(Cl)cccc1Cl | – | inactive: 0.118%
28 | COc1cc(OC)c(C(=O)/C=C/c2ccc(OCc3ccccc3)c(OC)c2)c(OC)c1 | inconclusive: 16.4 µM [activator, partial curve, poor fit] | –
29 | CCOc1ccc(NC(=O)CN(C)C(=O)c2c(-c3ccccc3)noc2C)cc1OCC | – | inactive: 2.97%
30 | O=C(N/N=C/c1ccccn1)c1[nH]c2ccc([N+](=O)[O-])cc2c1-c1ccccc1 | inconclusive: 18.4 µM [activator, single point] | –
31 | Cc1cnc(NC(=O)c2ccccn2)s1 | inconclusive: 29.1 µM [activator, single point] | –
32 | CCc1ccc(NC(=O)C(C)OC(=O)c2ccc(NS(=O)(=O)c3ccc(C)c([N+](=O)[O-])c3)cc2)cc1 (centres undefined) | inconclusive: 29.1 µM [activator, partial curve, poor fit] | –
33 | COc1cc(OC)c(OC)cc1/C=C/c1cc(C(F)(F)F)[nH]c(=O)n1 | active: 18.4 µM | –
34 | O=C(Nc1ccc(Cl)cc1)NC1CCCCC1 | – | inactive: -0.854% [at 9.22 µM]
35 | Cc1c(C)c2cc(Cl)c(O)c(CN3CCCCC3)c2oc1=O | – | inactive: 0.603%
36 | CC(C)C(C)NC(=O)COc1ccc(S(=O)(=O)N2CCOCC2)cc1Cl (centres undefined) | inconclusive: 0.13 µM [activator, full curve, poor fit] | –
37 | Cc1ccccc1NC(=O)c1ccc2ccccc2c1 | – | inactive: -4.97%
38 | COCCCN=C1NN=C(c2cc(C)n(Cc3ccco3)c2C)CS1 | active: 5.8 µM | –
39 | N#CC(c1cccc(Cl)c1)c1ccc2c(C(F)(F)F)cc(C(F)(F)F)nc2n1 (centres undefined) | inconclusive: 23.1 µM [activator, single point] | –
40 | O=C(CN1C(=O)COc2ccc(Cl)cc21)N1CCOCC1 | inconclusive: 18.4 µM [activator, partial curve, poor fit] | –
41 | Cc1ccc(NC(=S)NC(=O)/C=C/c2ccco2)c(O)c1 | inconclusive: 18.4 µM [activator, single point] | –
42 | Cc1ccc2cccc(OCC(=O)Nc3ccc(N4CCOCC4)cc3)c2n1 | inconclusive: 0.58 µM [activator, partial curve, poor fit] | –
43 | c1cc2c(c(NCc3ccncc3)c1)CCCC2 | – | inactive: -8.59%
44 | COc1ccc(CCNS(=O)(=O)c2cnc(Cl)c(Br)c2)cc1OC | inconclusive: 29.1 µM [activator, single point] | –
45 | C[C@H](CO)N1C[C@H](C)[C@@H](CN(C)C(=O)Nc2ccccc2)Oc2ccc(NC(=O)Cc3ccccc3)cc2C1=O | – | inactive: -23.9%
46 | c1ccc(N2CCN(c3nc(-c4ccccn4)nc4ccccc34)CC2)cc1 | inconclusive: 18.4 µM [activator, single point] | –

Row | SMILES | Potency | re-replication activation
47 | CCCCn1c(=N)n(CCOc2ccc(C)cc2)c2ccccc21 | active: 18.4 µM | –
48 | Cc1c(C(=O)N/N=C/c2ccc(N(C)C)cc2)[nH]c2ccc(Cl)cc12 | inconclusive: 5.8 µM [activator, full curve, poor fit] | –
49 | CCCCn1c(N)c(N(CC(C)C)C(=O)C2CCCO2)c(=O)[nH]c1=O (centres undefined) | – | inactive: -1.41%
50 | CN(CC(=O)Nc1ccc(Cl)c(C(F)(F)F)c1)C(=O)C1CC(=O)N(C2CCCC2)C1 (centres undefined) | – | inactive: -8.11%
51 | O=C1CCc2cc(S(=O)(=O)NCc3ccc(F)cc3)cc3c2N1CCC3 | inconclusive: 6.51 µM [activator, partial curve, poor fit] | –
52 | COc1ccc(Cc2nnc(NS(=O)(=O)c3ccccc3)s2)cc1 | inconclusive: 0.731 µM [activator, full curve, poor fit] | –
53 | COc1cc2cc(CCOC(=O)c3ccco3)oc(=O)c2cc1OC | – | inactive: -1.31%
54 | Oc1ccc(-c2nc3ccc4ccccc4c3c3c2CCC3)cc1O | inconclusive: 18.4 µM [activator, single point] | –
55 | Cc1cc(NS(=O)(=O)c2ccc3c(c2)OCCO3)no1 | inconclusive: 0.231 µM [activator, full curve, poor fit] | –
56 | COc1ccc(OC)c(Nc2cc(C)nc3ccc(C)cc23)c1 | active: 18.4 µM | –
57 | Cc1ccc(-n2nc(C)c(/C=N/NC(=O)c3cccnc3)c2Cl)cc1 | inconclusive: 29.1 µM [activator, single point] | –
58 | O=C(c1ccc2ncsc2c1)N1CCCC(C(F)(F)F)C1 (centres undefined) | inconclusive: 0.366 µM [activator, full curve, poor fit] | –
59 | OCCCCNCc1cc(Br)ccc1OCc1ccccc1F | – | inactive: -8.1%
60 | CNC(=O)[C@@H]1C[C@H]1[C@@H](NC(=O)OCc1ccccc1)c1ccccc1 | – | inactive: -1.34%
61 | CCOC(=O)C(=O)NC12CC3CC(CC(C3)C1)C2 | inconclusive: 18.4 µM [activator, partial curve, poor fit] | –
62 | N=C1C(c2nc3ccccc3s2)=C(O)CN1Cc1ccccc1 | inconclusive: 2.91 µM [activator, partial curve, poor fit] | –
63 | CCN(c1ccccc1)S(=O)(=O)c1ccc(Cl)c(NC(=O)CSc2ncn[nH]2)c1 | – | inactive: 1.55%
64 | COc1cccc(CNC(=O)c2nnn(CC(=O)Nc3cc(C)ccc3C)c2N)c1 | inconclusive: 25.9 µM [activator, single point] | –
65 | Cn1nccc1CNC(=O)c1c(Cl)cnn1C | inconclusive: 0.146 µM [activator, partial curve, poor fit] | –
66 | O=C(Oc1ccccc1C(=O)Oc1ccccc1)c1cccnc1 | inconclusive: 29.1 µM [activator, single point] | –
67 | CCSc1nc2ccccc2n1C(=O)/C=C\c1ccc(OC)c(OC)c1 | active: 8.2 µM | –
68 | CCSc1nnc(NC(=O)c2ccccn2)s1 | inconclusive: 28.2 µM [activator, single point] | –
69 | COc1ccc(C)cc1Nc1nc(-c2c(C)[nH]c3ccccc23)cs1 | inconclusive: 29.1 µM [activator, partial curve, poor fit] | –
